From article PMC3642328, “Ataxia Telangiectasia-Mutated (ATM) Kinase Activity Is Regulated by ATP-driven Conformational Changes in the Mre11/Rad50/Nbs1 (MRN) Complex*^([image sbox.jpg])” (The Journal of Biological Chemistry, 2013)
The exact form of at least one protein or probe is not confirmed.

Test system: MR(FKBP)N del676-685,Rad50,split,chain (human)
Test: EMSA
Details: 0.5 mM AMP-PNP, 5 mM MgCl2, Nbs1 present, lanes 17-18 with 200 nM AP20187, EMSA (Fig. 6A): 10 nM DNA, 25 mM MOPS pH 7.0, 20 mM Tris pH 8.0, 5 mM MgCl2, 8% glycerol, 80 mM NaCl, 2 mM DTT, temperature not stated, recombinant protein, protein details: FKBP12 derivative fused to Rad50 1-675, label: Cy5 at 3' end of TP2109

CTTGCATGCCTCAGCTATTCCGGATTATTCATACCGTCCCA / TGGGACGGTATGAATAATCCGGAATAGCTGAGGCATGCAAGTCTA [TP2151/TP2109]
binding result: binds
